PMC7819943, “Rice protein-binding microarrays: a tool to detect cis-acting elements near promoter regions in rice”
Some of the results follow.

Amino acid sequences for entries named in this document (tags omitted).
UniProt Q0JBA9, entry or part of it: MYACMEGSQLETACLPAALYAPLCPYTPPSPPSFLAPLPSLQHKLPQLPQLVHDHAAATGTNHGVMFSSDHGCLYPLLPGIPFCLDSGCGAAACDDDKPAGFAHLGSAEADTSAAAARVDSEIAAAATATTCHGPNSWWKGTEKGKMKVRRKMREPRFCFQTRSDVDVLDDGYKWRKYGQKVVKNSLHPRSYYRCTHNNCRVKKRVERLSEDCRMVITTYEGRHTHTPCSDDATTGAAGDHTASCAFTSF

What follows are sequences tested against OsWRKY34 (Oryza sativa, UniProt Q0JBA9 1-250) (assay: protein-binding microarray (RPBM); PBS, 2% BSA, 51.3 ng/ul salmon testes DNA, 50 uM zinc acetate, 200 nM TF, 25 C, 1 h; high values mean tight binding). Conditions: protein: recombinant; tags: N-terminal polyhistidine and DsRed monomer fusion (pET32a); label: CyDye5-dUTP incorporated in the synthesized complementary strand; 3' TTTTT single-stranded linker to array surface; dsDNA, one strand shown.
Summary of the method: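 Transcription factors, each fused N-terminally to a polyhistidine tag and DsRed, were expressed in E. coli BL21-CodonPlus and purified on Ni–NTA. A custom Agilent array was made double-stranded by primer extension with Cy5-dUTP and blocked with 2% BSA. It was incubated with 200 nM protein in PBS, 2% BSA, salmon testes DNA and 50 µM zinc acetate at 25 °C for 1 h, then washed. The binding signal is per-feature fluorescence intensity (arbitrary units) read on an Axon 4000B scanner.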

Sequence	binding signal
AGGTCATCATTTTGTGTTTCACACCCAGCGCCTCAATTTGCGGAGTCACCTAGTGCAG	11800 fluorescence intensity (a.u.)
ATGTATGACGCCGTTGACTTTTCGACCAACGTTTATTCGTCGGAGTCACCTAGTGCAG	30200 fluorescence intensity (a.u.)
TTCTAACTTTTCCGTTATATCGTTCCAATTTCAATCAAACCGGAGTCACCTAGTGCAG	9440 fluorescence intensity (a.u.)
GGGGTGGTGGCGGATGAGTCGAACATGGAAGGATCCGAGCCGGAGTCACCTAGTGCAG	10800 fluorescence intensity (a.u.)
TACATCGTCCGTGTCTCGTGTTTCTTCCTGGCACGCGATCCGGAGTCACCTAGTGCAG	8840 fluorescence intensity (a.u.)
TTTACCATCTACTACACGGTTTTTATTTCGTCATATATTCCGGAGTCACCTAGTGCAG	13300 fluorescence intensity (a.u.)
TAGAGAATTTACCATCAAATTCATGTGCCTCAACTTTTTTCGGAGTCACCTAGTGCAG	8700 fluorescence intensity (a.u.)
GTGGGGTGGTAAAAAAGAAAAACCGGGAGGAGAAGGCGGTCGGAGTCACCTAGTGCAG	9880 fluorescence intensity (a.u.)
TCATCGTGCTCTTCATCACCTTCACCCATCCTGGCTTAGTCGGAGTCACCTAGTGCAG	14000 fluorescence intensity (a.u.)
CACACACTTCCTTCCATCATTGTCACCTACTTTTTTAATACGGAGTCACCTAGTGCAG	8280 fluorescence intensity (a.u.)
GAAAGAATCCTTTCATCCTTTTGTACTGTCTACCTACTGGCGGAGTCACCTAGTGCAG	8610 fluorescence intensity (a.u.)
TCTTCCTGCCTGCCTACTCTCTCCTTGTTGTCCATGGCTCCGGAGTCACCTAGTGCAG	8620 fluorescence intensity (a.u.)
AACAACTACTCAAGCCATTTCAAGTGCAACCATTCCTGTCCGGAGTCACCTAGTGCAG	8050 fluorescence intensity (a.u.)
ATCTGCCACTGTGTGTTTGTAGCTACCTATAACATGTTATCGGAGTCACCTAGTGCAG	9020 fluorescence intensity (a.u.)
GCGCCTCGAATCCCCGCCTGGTCGTCTCTCCCCTCTCCCTCGGAGTCACCTAGTGCAG	8530 fluorescence intensity (a.u.)
ATTAGTTATTAAAAGTACTTTTATGTAGCATATGTGTTTTCGGAGTCACCTAGTGCAG	10400 fluorescence intensity (a.u.)
CGTTCAAACAAACTATGTTTGTATCAGAGTTCACCTCTTCCGGAGTCACCTAGTGCAG	8710 fluorescence intensity (a.u.)
TTGGGGTTTTTGTCGTAGAATCTCTCCTTCTCTTCATGATCGGAGTCACCTAGTGCAG	9370 fluorescence intensity (a.u.)
TTGTCGGGGTCTGGTGGCGGTGGCAGGCAAGGTGCCAGTGCGGAGTCACCTAGTGCAG	9000 fluorescence intensity (a.u.)
GTTGCACTCAAACGTGGTACCTACCTACCAAGTTGTTGTACGGAGTCACCTAGTGCAG	8270 fluorescence intensity (a.u.)
AGTTCAACTGCGATCTGCTGCCTTTTCCTATTCGATCCCACGGAGTCACCTAGTGCAG	8260 fluorescence intensity (a.u.)
CTTACTTGCGATTATCCAGGAGACTTGGCATTCGTATACTCGGAGTCACCTAGTGCAG	8380 fluorescence intensity (a.u.)
CCAAGAGAGACCATCATCTGCTAGCTTAGAACTCCTATATCGGAGTCACCTAGTGCAG	13700 fluorescence intensity (a.u.)

Retrieved one by one from above:
Sequence	binding signal
TACATCGTCCGTGTCTCGTGTTTCTTCCTGGCACGCGATCCGGAGTCACCTAGTGCAG	8840 fluorescence intensity (a.u.)
GAAAGAATCCTTTCATCCTTTTGTACTGTCTACCTACTGGCGGAGTCACCTAGTGCAG	8610 fluorescence intensity (a.u.)
